Article PMC8845250
Results are given in words; binding and its absence hold for the method and conditions named. Binding seen in cells or lysates may run through a third protein. Some results given as binding are weak or reduced against the parent protein; the word gives no strength.

Biological target: T1, CDCA8 (human (endogenous in C4-2)) (UniProt Q53HL2)
T1 sequence: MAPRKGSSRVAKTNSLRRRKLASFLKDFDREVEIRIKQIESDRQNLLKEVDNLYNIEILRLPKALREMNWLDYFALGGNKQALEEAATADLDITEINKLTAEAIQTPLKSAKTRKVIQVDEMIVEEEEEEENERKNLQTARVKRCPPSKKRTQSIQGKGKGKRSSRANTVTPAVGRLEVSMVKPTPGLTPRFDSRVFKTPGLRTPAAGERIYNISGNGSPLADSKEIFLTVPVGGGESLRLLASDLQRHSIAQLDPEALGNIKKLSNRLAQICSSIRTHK
Test: co-IP; C4-2 whole cell lysate (1.0 mg protein) incubated with CDCA8 antibody (control: IgG) overnight at 4 C, beads 2 h at 4 C, SDS-PAGE and western blot

binding: binds
B1: UAP1-like-1 (UAP1L1) (protein, UniProt Q3KQV9 1-507)
chain: MASEQDVRARLQRAGQEHLLRFWAELAPEPRAALLAELALLEPEALREHCRRAAEACARPHGPPPDLAARLRPLPPERVGRASRSDPETRRRWEEEGFRQISLNKVAVLLLAGGQGTRLGVTYPKGMYRVGLPSRKTLYQLQAERIRRVEQLAGERHGTRCTVPWYVMTSEFTLGPTAEFFREHNFFHLDPANVVMFEQRLLPAVTFDGKVILERKDKVAMAPDGNGGLYCALEDHKILEDMERRGVEFVHVYCVDNILVRLADPVFIGFCVLQGADCGAKVVEKAYPEEPVGVVCQVDGVPQVVEYSEISPETAQLRASDGSLLYNAGNICNHFFTRGFLKAVTREFEPLLKPHVAVKKVPYVDEEGNLVKPLKPNGIKMEKFVFDVFRFAKNFAALEVLREEEFSPLKNAEPADRDSPRTARQALLTQHYRWALRAGARFLDAHGAWLPELPSLPPNGDPPAICEISPLVSYSGEGLEVYLQGREFQSPLILDEDQAREPQLQES
